Experimental data from article PMC12670160, “A drug-repurposing screen of FDA- and EMA-approved drugs identifies two NF-κB inhibitors active against eumycetoma” (Journal of Antimicrobial Chemotherapy, 2025).
Where a name gives a salt, the structure may show the parent alone. The campaign covered roughly 5,300 compounds. About 130 (2.5%) showed an effect of 50% or more. The list shows a part of the results.

Test system: M. mycetomatis strain mm55
Conditions: primary screen, metabolic activity vs growth control; 96 h, 2 µM; inhibitor

Q: With `CCC(CC)Nc1nc(C)c(-c2ccc(OC(F)(F)F)cc2OC)nc1OC` [ONC0000233, ngd982] as the molecule, how does the “% viability” value read?
A: 64.62%

Q: With `CCOC(=O)c1ccc(OC(=O)CCCCCNC(=N)N)cc1` [ONC0004260, gabexate mesylate] as the molecule, how does the “% viability” value read?
A: 78.39%

Q: How did the “% viability” value turn out when `CCCCC[C@H](O)/C=C/[C@@H]1[C@@H](C/C=C\CCCC(=O)O)[C@@H](O)C[C@H]1O` [ONC0005469, prostaglandin f2] was run?
A: 112.2%

Q: With `CCSC(=N)N` [ONC0003855, ethylsulfanylmethanimidamide hydrobromide] as the molecule, how does the “% viability” value read?
A: 78.35%

Q: With `O=C(c1cccc(Br)c1)N1CCC(N2CCCC2)CC1` [ONC0004289, unc926] as the molecule, how does the “% viability” value read?
A: 61.43%

Q: With `CC(=O)c1ccc(S(=O)(=O)NC(=O)NC2CCCCC2)cc1` [ONC0003935, acetohexamide] as the molecule, how does the “% viability” value read?
A: 59.74%

Q: With `CCOc1ccc(/C=C2\NCCc3cc(OCC)c(OCC)cc32)cc1OCC` [ONC0003467, drotaverine] as the molecule, how does the “% viability” value read?
A: 71.51%

Q: With `Cc1c(-c2ccnn2C)cc(C(=O)NCc2ccc(S(C)(=O)=O)cn2)c(=O)n1-c1cccc(C(F)(F)F)c1` [ONC0002063, alvelestat] as the molecule, how does the “% viability” value read?
A: 61.26%

Q: How did the “% viability” value turn out when `COc1cc(/C=C/C(=O)N2CCN(CC(=O)N3CCCC3)CC2)cc(OC)c1OC` [ONC0004539, cinepazide maleate] was run?
A: 60.96%

Q: For `O=C(Nc1ccc(OC(F)(F)F)cc1)c1sccc1NCc1ccnc2ccccc12` [ONC0004370, osi930], which “% viability” value is on record?
A: 101.3%

Q: How did the “% viability” value turn out when `CCCCCCCCCCCCCCCCCCOP(=O)([O-])OC1CC[N+](C)(C)CC1` [ONC0001843, perifosine] was run?
A: 106.4%

Q: With `CC(=O)Nc1cccc2c1c(Sc1ccc(Cl)cc1)c(C)n2CC(=O)O` [ONC0005177, azd1981] as the molecule, how does the “% viability” value read?
A: 103.4%

Q: For `CCCNC(C)C(=O)Nc1ccccc1C` (stereo not drawn) [ONC0002873, prilocaine hydrochloride], which “% viability” value is on record?
A: 82.79%

Q: For `COc1ccc(CN(CCN(C)C)c2ccccn2)cc1` [ONC0003389, pyrilamine maleate], which “% viability” value is on record?
A: 74.7%

Q: How did the “% viability” value turn out when `CC(COc1ccccc1)N(CCCl)Cc1ccccc1` (stereo not drawn) [ONC0001845, phenoxybenzamine hydrochloride] was run?
A: 103.3%

Q: `Nc1ncn([C@@H]2O[C@H](CO)[C@@H](O)[C@H]2O)c(=O)n1` [ONC0004088, azacitidine] was tested. Which “% viability” value did it give?
A: 123.9%

Q: With `Cn1c(=O)cc(N2CCC[C@@H](N)C2)n(Cc2cc(F)ccc2C#N)c1=O` [ONC0004490, trelagliptin] as the molecule, how does the “% viability” value read?
A: 51.25%

Q: How did the “% viability” value turn out when `CC(C)(C)CC(=O)Nc1c(F)cc(C(=O)/N=c2\sccn2COP(=O)(O)O)cc1F` [ONC0000160, luaa47070] was run?
A: 102.6%

Q: `CC(C)(C)c1[nH]cnc1/C=c1\[nH]c(=O)/c(=C/c2ccccc2)[nH]c1=O` [ONC0000419, plinabulin] was tested. Which “% viability” value did it give?
A: 52.18%

Q: Which “% viability” value does the source give for `COc1cc2c(Oc3ccc4[nH]c(C)cc4c3F)ccnc2cc1OCC1(N)CC1` [ONC0001260, anlotinib] here?
A: 64.67%

Q: How did the “% viability” value turn out when `CCCCCCCC/C=C/C(=O)O` [ONC0003676, trans2undecenoic acid] was run?
A: 70.7%

Q: Which “% viability” value does the source give for `COc1ccc(Cc2nccc3cc(OC)c(OC)cc23)cc1OC` [ONC0000540, papaverine hydrochloride] here?
A: 80.31%

Q: For `CCCOc1ccc2[nH]cc(C3=CCNCC3)c2n1` [ONC0001634, cp94253], which “% viability” value is on record?
A: 74.19%

Q: For `c1ccc(C2CN3CCSC3=N2)cc1` (stereo not drawn) [ONC0004107, tetramizole hydrochloride], which “% viability” value is on record?
A: 107.6%

Q: With `Cc1ccccc1NC(=O)Nc1ccc(CC(=O)N(C)[C@@H](CC(C)C)C(=O)NCC[C@H](NC(=O)[C@@H]2CCCN2S(=O)(=O)c2cc(Cl)cc(Cl)c2)C(=O)O)cc1` [ONC0000052, bio5192] as the molecule, how does the “% viability” value read?
A: 94.23%

Q: How did the “% viability” value turn out when `O=c1c2c(c1=O)N(CCP(=O)(O)O)CCCN2` [ONC0005537, perzinfotel] was run?
A: 115.9%

Q: `O=C(Nc1cccc2c(=O)cc(-c3nnn[nH]3)oc12)c1ccc(OCCCCc2ccccc2)cc1` [ONC0001915, pranlukast] was tested. Which “% viability” value did it give?
A: 50.95%

Q: `C=C(c1ccccc1OCc1cccc(Cl)c1)n1ccnc1` [Cloconazole HCl] was tested. Which “% viability” value did it give?
A: 3.259%

Q: `c1ccc2c(c1)CCC[C@H]2Nc1nc2ccccc2[nH]1` [ONC0001745, ns8593] was tested. Which “% viability” value did it give?
A: 74%

Q: For `CC(C)(C)NC[C@H](O)COc1nsnc1N1CCOCC1` [ONC0001295, timolol], which “% viability” value is on record?
A: 65.77%

Q: Which “% viability” value does the source give for `COc1ccc(NC(=O)c2ccc(-c3ccc(-c4noc(C)n4)cc3C)cc2)cc1OCCN(C)C` [ONC0000072, sb216641] here?
A: 86.64%

Q: For `COc1cc(C[C@H](C)[C@H](C)Cc2ccc3c(c2)OCO3)ccc1O` [ONC0001722, macelignan], which “% viability” value is on record?
A: 76.98%

Q: With `NCCCC[C@H](N[C@@H](CCc1ccccc1)C(=O)O)C(=O)N1CCC[C@H]1C(=O)O` [ONC0000583, lisinopril] as the molecule, how does the “% viability” value read?
A: 115.2%

Q: With `CCCCOCCOc1nc(-c2ccc(C(=O)O)c(F)c2)sc1C` [ONC0002483, ac261066] as the molecule, how does the “% viability” value read?
A: 109.3%

Q: For `FC(F)(F)c1ccccc1-n1ccnc1` [ONC0000025, trim], which “% viability” value is on record?
A: 101%

Q: How did the “% viability” value turn out when `O=C(c1cccc(Cl)c1F)N1CCN(Cc2cccc(Nc3nccs3)n2)CC1` [ONC0005153, mk8745] was run?
A: 124.5%

Q: Which “% viability” value does the source give for `COc1cc(OC)c2c(=O)[nH]c(-c3cc(C)c(OCCO)c(C)c3)nc2c1` [ONC0005158, rvx208rvx000222] here?
A: 101.3%

Q: With `Cc1cc(OCCN2CCOCC2)nn1-c1ccc2ccccc2c1` [ONC0001075, s1ra hydrochloride] as the molecule, how does the “% viability” value read?
A: 79.6%

Q: Which “% viability” value does the source give for `COc1cccc(NC(=O)/C=C/c2ccc(Cl)cc2)c1` [ONC0002692, sb366791] here?
A: 74.75%

Q: For `O=C1CSC(c2ccccc2Cl)c2cc(Cl)ccc2N1` (stereo not drawn) [ONC0000124, cgp37157], which “% viability” value is on record?
A: 99.94%

Q: With `C[C@@]12CCc3occc3[C@H]1CC[C@@]13C[C@@H](CC[C@H]12)[C@@](O)(CO)C3` [ONC0003460, cafestol] as the molecule, how does the “% viability” value read?
A: 77.57%

Q: For `O=C(O)Cc1ccc(OCc2ccccc2)c(Cl)c1` [ONC0002166, benzofenac], which “% viability” value is on record?
A: 78.33%

Q: How did the “% viability” value turn out when `Cc1ccccc1N(C)C(=O)c1ccc([S+]([O-])c2nccs2)c([N+](=O)[O-])c1` (stereo not drawn) [ONC0002619, sb268262] was run?
A: 108.4%

Q: For `CCOC(=O)OC(C)OC(=O)[C@@H]1N2C(=O)[C@@H](NC(=O)[C@H](N)c3ccccc3)[C@H]2SC1(C)C` (stereo partly drawn) [ONC0003112, bacampicillin hydrochloride], which “% viability” value is on record?
A: 79.97%

Q: Which “% viability” value does the source give for `O=Cc1ccc(CO)o1` [ONC0002787, 5hydroxymethylfuran2carbaldehyde] here?
A: 74.71%

Q: With `CCN[C@@H]1C[C@H](C)S(=O)(=O)c2sc(S(N)(=O)=O)cc21` [ONC0004566, dorzolamide hcl] as the molecule, how does the “% viability” value read?
A: 57.78%

Q: With `CCNC(=O)N1CCN(CCCC(c2ccc(F)cc2)c2ccc(F)cc2)CC1` [ONC0003498, amperozidehcl] as the molecule, how does the “% viability” value read?
A: 32.95%

Q: `C[C@@H](N[C@H]1CCCC[C@@H]1NC(=O)c1ccc(Cl)cc1)c1cccc2ccccc12` [ONC0003067, calhex231] was tested. Which “% viability” value did it give?
A: 73.79%

Q: `O=C(N/N=C/c1ccc([N+](=O)[O-])o1)c1cc([N+](=O)[O-])cc([N+](=O)[O-])c1O` [ONC0004091, nifursol] was tested. Which “% viability” value did it give?
A: 114%

Q: With `C[C@]12CC[C@H]3[C@@H](CC[C@@]45O[C@@H]4C(O)=C(C#N)C[C@]35C)[C@@H]1CC[C@@H]2O` [ONC0004250, trilostane] as the molecule, how does the “% viability” value read?
A: 70.27%

Q: `Cc1nc(NC(=O)N2CCC[C@H]2C(N)=O)sc1-c1csc(C(C)(C)C)n1` [ONC0000145, a66] was tested. Which “% viability” value did it give?
A: 101.1%

Q: For `Nn1cnc2cc3ccccc3cc2c1=O` [ONC0002560, centazolone], which “% viability” value is on record?
A: 70.03%

Q: With `COC1=C(OC)C(=O)C(CCCCCCCCCCO)=C(C)C1=O` [ONC0004071, idebenone] as the molecule, how does the “% viability” value read?
A: 145.4%

Q: `CCOC(=O)[C@H](CCc1ccccc1)N[C@H]1CCc2ccccc2N(CC(=O)O)C1=O` [ONC0004295, benazepril hydrochloride] was tested. Which “% viability” value did it give?
A: 87.99%

Q: For `COc1cccc(-n2nc(C(=O)O)cc2-c2ccc(C3CCCCC3)c(Cl)c2)c1` [ONC0000173, tclpa54], which “% viability” value is on record?
A: 91.44%

Q: For `CC1(C)[C@@H]2C[C@@H](O)[C@@](C)(O)[C@H]1C2` [ONC0002949, 266trimethylbicyclo311heptane23diol], which “% viability” value is on record?
A: 64.26%

Q: With `C/C=C/C1=C(C(=O)O)N2C(=O)[C@@H](NC(=O)[C@H](N)c3ccc(O)cc3)[C@H]2SC1` [ONC0004213, cefprozil] as the molecule, how does the “% viability” value read?
A: 75.17%

Q: Which “% viability” value does the source give for `Cn1cc(-c2ccc(F)c(C(F)(F)F)c2)nc1C1CCN(c2ncnc3[nH]ncc23)CC1` [ONC0005261, ly2584702 tosylate] here?
A: 149.4%

Q: For `COC(=O)c1cnn(-c2ccc(F)cc2F)c1/C=N/NC(=S)NC(C)(C)C` [ONC0001614, cid2745687], which “% viability” value is on record?
A: 66.77%

Q: With `CN1CCCC(n2nc(Cc3ccc(Cl)cc3)c3ccccc3c2=O)CC1` (stereo not drawn) [ONC0004220, azelastine hydrochloride] as the molecule, how does the “% viability” value read?
A: 63.48%

Q: How did the “% viability” value turn out when `O=C(CNC(=O)c1ccc(Cl)cc1)NO` [ONC0003964, benurestat] was run?
A: 71.17%

Q: For `CN1CCCC1c1cccnc1` (stereo not drawn) [ONC0005499, nicotine bitartrate], which “% viability” value is on record?
A: 91%
